{"source": "paper PMC9785946", "about": "(Pharmaceutics, 2022)", "experiment": "general procedure: Fmoc solid-phase peptide synthesis; Rink Amide resin; HATU, HBTU", "settings": "for isolated yield: whole synthesis", "data": [{"substance": "AR-Pip-NH2", "values": [{"measurement": "isolated yield", "setting": "overall yield over two steps, scale 7.2 µmol", "value": 32, "unit": "%"}]}, {"substance": "AR-Pip-TCO", "values": [{"measurement": "conjugation yield", "setting": "conjugation step", "value": 34, "unit": "%"}, {"measurement": "isolated yield", "value": 13, "unit": "%"}]}]}
